Measured values published in article PMC10671598.
These are yes or no findings as the source states them, for the method shown. In cells and extracts the contact can be indirect. Some results given as binding are weak or reduced against the parent protein; the word gives no strength. For some of these results: Sequences can lack the tags named with a protein.

Sequences of proteins named here, by UniProt entry; tags and fusion partners are left off.
UniProt P60484: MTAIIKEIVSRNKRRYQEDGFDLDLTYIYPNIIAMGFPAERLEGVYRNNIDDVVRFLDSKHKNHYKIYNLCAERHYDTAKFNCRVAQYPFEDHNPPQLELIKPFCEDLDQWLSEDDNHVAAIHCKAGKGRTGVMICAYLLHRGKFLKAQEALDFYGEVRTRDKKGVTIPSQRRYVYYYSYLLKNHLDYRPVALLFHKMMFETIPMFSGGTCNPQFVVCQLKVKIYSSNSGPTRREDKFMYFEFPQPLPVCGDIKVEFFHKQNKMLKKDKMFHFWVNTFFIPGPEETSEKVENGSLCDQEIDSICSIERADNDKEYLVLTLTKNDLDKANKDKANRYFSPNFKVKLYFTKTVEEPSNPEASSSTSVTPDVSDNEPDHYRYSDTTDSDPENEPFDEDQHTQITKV
UniProt Q14653: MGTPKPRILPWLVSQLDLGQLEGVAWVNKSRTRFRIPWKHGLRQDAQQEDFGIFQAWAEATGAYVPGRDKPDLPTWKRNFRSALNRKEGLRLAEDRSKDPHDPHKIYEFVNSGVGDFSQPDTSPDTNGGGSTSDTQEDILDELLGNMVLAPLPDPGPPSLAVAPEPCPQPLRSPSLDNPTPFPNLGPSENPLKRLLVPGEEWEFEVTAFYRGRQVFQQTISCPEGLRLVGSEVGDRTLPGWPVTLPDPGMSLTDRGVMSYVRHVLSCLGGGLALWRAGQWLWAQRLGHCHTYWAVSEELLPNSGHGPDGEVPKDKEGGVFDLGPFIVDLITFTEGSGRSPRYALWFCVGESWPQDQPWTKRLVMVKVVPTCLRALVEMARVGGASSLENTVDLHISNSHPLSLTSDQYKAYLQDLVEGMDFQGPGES

Columns and labels:
RNF138-Flag (human) = biological target: T1, RNF138-Flag (human) (UniProt Q8WVD3); assay: co-IP; HEK293T transfected with the indicated plasmids for 24 h; lysis buffer 20 mM Tris pH 7.5, 150 mM NaCl, 1% Triton X-100, 1 mM EDTA; Flag beads or the indicated antibody with protein A/G agarose, 4 °C overnight; immunoblot; for PTEN-IRF3 also with myc-RNF138 co-expressed or in RNF138-KO cells
T1 sequence: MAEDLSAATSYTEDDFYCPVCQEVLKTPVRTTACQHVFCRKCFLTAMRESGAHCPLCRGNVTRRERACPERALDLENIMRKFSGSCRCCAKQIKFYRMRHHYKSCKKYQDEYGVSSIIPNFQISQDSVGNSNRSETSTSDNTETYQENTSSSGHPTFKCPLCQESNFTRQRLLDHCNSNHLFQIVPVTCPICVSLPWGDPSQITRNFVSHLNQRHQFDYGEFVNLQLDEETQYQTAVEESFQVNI

[1] = biological target: T2, RNF138 (endogenous, HEK293T) (human (endogenous in HEK293T)) (UniProt Q8WVD3); assay: co-IP; endogenous immunoprecipitation from HEK293T cells infected with SeV for the indicated times; same lysis and washing as for the transfected cells
T2 sequence: T1 sequence

PTEN-Flag = PTEN-Flag (UniProt P60484); assay: co-IP; HEK293T transfected with the indicated plasmids for 24 h; lysis buffer 20 mM Tris pH 7.5, 150 mM NaCl, 1% Triton X-100, 1 mM EDTA; Flag beads or the indicated antibody with protein A/G agarose, 4 °C overnight; immunoblot; for PTEN-IRF3 also with myc-RNF138 co-expressed or in RNF138-KO cells

Row | binding (RNF138-Flag (human)) | binding [1] | binding (PTEN-Flag) | Substance
1 | binds | binds | – | IRF3 (endogenous, HEK293T) (from UniProt Q14653 1-427)
2 | binds | – | binds | HA-IRF3 (from UniProt Q14653 1-427)
